Laboratory results taken from the supplement of paper PMC5949888.
Most values lie at the floor of the assay. Slopes are relative: functional sequences can read slightly below zero.

The substances below were run on Saccharomyces cerevisiae PS128 hsf1 delta, HSF1(1-493) fusion (assay: growth estimate (transactivation domain function in HSF1 fusion, heat-shock survival) (a.u. (slope of normalised read count over time)); higher = stronger growth at 37°C, i.e. more transactivation activity). Details: library: random library.

Row | Substance | growth estimate
1 | LPEVRFRESCVQPNV | < -0.25
2 | QKRVRTLPILLGCIGRLEAR | < -0.25
3 | SEAFAFYGMYRLRRRGFSEG | < -0.25
4 | LFGVKVRHINLITVVGQDQQ | < -0.25
5 | SSLAHLITSKIRGDLFIRPL | < -0.25
6 | QREWGIGDPLVRA | < -0.25
7 | RRLGSRPVSSPGELTMC | < -0.25
8 | RAWGVNSTT | < -0.25
9 | SVDSSWQGSEIFIVNPAKRS | < -0.25
10 | ESGFCDSGNETVFTLSLIGY | < -0.25
11 | FTRQDQQT | < -0.25
12 | LGRRVVQIVLL | < -0.25
13 | RVISDVYHSDFLLVRFRDKH | < -0.25
14 | SKEGSANAHELVSRSLPTTG | < -0.25
15 | PGLDESSIRVYLRLAH | < -0.25
16 | MDRGYHHHLVESIYNLLIKP | < -0.25
17 | ALAGGQV | < -0.25
18 | RWDRNDRMYLRRYRASRFSR | < -0.25
19 | SEMVRHHVGHCRANSENKSH | < -0.25
20 | LDDAFSAYRSRGPG | < -0.25
21 | DVQSTS | < -0.25
22 | EESPASQVSGCVSVLVYRMI | < -0.25
23 | LSL | < -0.25
24 | LAPSMETASFGDMEQGSRAL | < -0.25
25 | VHC | < -0.25

Row | Substance | growth estimate
26 | GSNNQNAEEYSLGSRR | < -0.25
27 | YPCNWVRSGNSVSGQSNVGS | < -0.25
28 | PDRLKLPSEQSGKAAVGRPK | < -0.25
29 | PQRHCINAIPRTCSENFPLS | < -0.25
30 | PDADAI | < -0.25
31 | QALGAL | < -0.25
32 | GSRLEPYHMPPASCGVPGKC | < -0.25
33 | GCNGGVSVELPGTSSSEWYG | < -0.25
34 | VCKAPNKCYG | < -0.25
35 | MWSITRA | < -0.25
36 | QHSAVGLEPGCKRVALGPQS | < -0.25
37 | NVGETGR | < -0.25
38 | SNVGRRQQAILVELCPGFES | < -0.25
39 | FITYVQSLCLRTTMNDGNET | < -0.25
40 | IVRSPILGGHPNGFCGMEGS | < -0.25
41 | GDVSTRGNGKVERGRDPPGI | < -0.25
42 | NALELAWAPPTAMLAENGNT | < -0.25
43 | GDTKASN | < -0.25
44 | RPGRPV | < -0.25
45 | GHLLVKFGYCS | < -0.25
46 | LSLGIMTEVDFVTGVAALRV | < -0.25
47 | ASYHSTVGTYCSVLHEYGKE | < -0.25
48 | HSDLGYLNCVLLSKVKEGLH | < -0.25
49 | RSLGCHLVYIYSRKVCSGIV | < -0.25
50 | SNVSNLTGRVSSIIGAVRRS | < -0.25

Rewritten with tabs: entries from further up.
Row	Substance	growth estimate
23	LSL	< -0.25
24	LAPSMETASFGDMEQGSRAL	< -0.25
25	VHC	< -0.25
26	GSNNQNAEEYSLGSRR	< -0.25

Following part

Row | Substance | growth estimate
51 | AETRVV | < -0.25
52 | RHC | < -0.25
53 | MSGSVIWTRTQKFRHPRALI | < -0.25
54 | QTPGNRWSKRC | < -0.25
55 | WARRGTGVSLEKSYGVV | < -0.25
56 | AHAVGCEACAQWVDRDWTAS | < -0.25
57 | LHTSREQVMLCR | < -0.25
58 | ADAVINGCTLERIVLSQRGS | < -0.25
59 | GGTVTQV | < -0.25
60 | RGRVEHPYGRA | < -0.25
61 | ITSSSQDIDPGHSLGRLSQS | < -0.25
62 | LRLAE | < -0.25
63 | RGHQAMGVPIL | < -0.25
64 | CWIIYRLWLRLGISSTRPPP | < -0.25
65 | GGSVMYESMTLEELVRSLCS | -0.0372
66 | YGKNLVRDLIIHLFQSV | < -0.25
67 | QSLTRGTLVPWDAGPRTGVQ | < -0.25
68 | IESLRCSSKPLSISYGFPSW | < -0.25
69 | LEK | < -0.25
70 | VVSKNRGRVGGFEMQSNQKP | < -0.25
71 | HLLLRGIAGRHKHCLGVRRR | < -0.25
72 | SSLNSFGL | < -0.25
73 | RCSSAQAGGGTG | < -0.25
74 | DLVVLARLRFIPTGGQTAGS | < -0.25
75 | DFRRLR | < -0.25

As a working copy, some entries already given:
Row | Substance | growth estimate
72 | SSLNSFGL | < -0.25
73 | RCSSAQAGGGTG | < -0.25
74 | DLVVLARLRFIPTGGQTAGS | < -0.25
75 | DFRRLR | < -0.25

(listing goes on)

Row | Substance | growth estimate
76 | VWCKYI | < -0.25
77 | RLPRDTTNSRLPHRDSTGQV | < -0.25
78 | YRMKCHGRDLHHSSY | < -0.25
79 | SQTSHCGCAATPR | < -0.25
80 | SKRPDPCTSRGSA | < -0.25
81 | ACRTRLVECECLVFRCEQRH | < -0.25
82 | LDSI | < -0.25
83 | ALGVNPERSHHRLDSRASLR | < -0.25
84 | RVEGASGNVFSPRRERPPLG | < -0.25
85 | VTCFLYYRSRYWPQ | < -0.25
86 | FGNMTSGQGP | < -0.25
87 | GEYRMENFG | -0.19
88 | AIED | < -0.25
89 | NTKQHSCISTRCFVSGRALC | < -0.25
90 | SEWRRAILLPISRVQPVHAW | < -0.25
91 | RDRRLLINVREIGPIGEVVT | < -0.25
92 | VCDLSGLMRS | < -0.25
93 | RVWCNCPTWAMSAGSFRDSS | < -0.25
94 | SITFRRGLRSNEPPTTSSVD | < -0.25
95 | SVQHSGLS | < -0.25
96 | PIRALTELLNSRPPHSAS | < -0.25
97 | CFKESQLCRAVSTSRSREGR | < -0.25
98 | EWPS | < -0.25
99 | YFIVCVDTAYCYHCDSCAYN | < -0.25
